This is one part of the list.
Tests used:
Experiment in all cases: glycan array binding signal (z-score within array); higher = stronger binding
Details in all cases: glycan notation: IUPAC condensed, linker removed
[1] = target: Fuc(a1-2)[GalNAc(a1-3)]Gal(b1-3)GlcNAc(b1-6)GalNAc
In short: (§1)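 Arrays were curated from the Consortium for Functional Glycomics database, 3228 in total, and kept only where the protein sequence was available. Binding is expressed as a within-array Z-score. This score was averaged across arrays of the same protein sequence at different concentrations or buffers and across linkers, and negative values can be read as non-binding.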

[2] = target: Fuc(a1-2)[GalNAc(a1-3)]Gal(b1-4)Glc
In short: as §1

[3] = target: Fuc(a1-2)[GalNAc(a1-3)]Gal(b1-4)GlcNAc
In short: as §1

[4] = target: Fuc(a1-2)[GalNAc(a1-3)]Gal(b1-4)GlcNAc(b1-2)Man
In short: as §1

[5] = target: Fuc(a1-2)[GalNAc(a1-3)]Gal(b1-4)GlcNAc(b1-2)Man(a1-3)[Fuc(a1-2)[GalNAc(a1-3)]Gal(b1-4)GlcNAc(b1-2)Man(a1-6)]Man(b1-4)GlcNAc(b1-4)GlcNAc
In short: as §1

[6] = target: Fuc(a1-2)[GalNAc(a1-3)]Gal(b1-4)GlcNAc(b1-2)Man(a1-3)[Fuc(a1-2)[GalNAc(a1-3)]Gal(b1-4)GlcNAc(b1-2)Man(a1-6)]Man(b1-4)GlcNAc(b1-4)[Fuc(a1-6)]GlcNAc
In short: as §1

[7] = target: Fuc(a1-2)[GalNAc(a1-3)]Gal(b1-4)GlcNAc(b1-3)Gal(b1-4)GlcNAc
In short: as §1

[8] = target: Fuc(a1-2)[GalNAc(a1-3)]Gal(b1-4)GlcNAc(b1-3)Gal(b1-4)GlcNAc(b1-3)Gal(b1-4)GlcNAc
In short: as §1

[9] = target: Fuc(a1-2)[GalNAc(a1-3)]Gal(b1-4)GlcNAc(b1-3)GalNAc
In short: as §1

[10] = target: Fuc(a1-2)[GalNAc(a1-3)]Gal(b1-4)GlcNAc(b1-3)[Fuc(a1-2)[GalNAc(a1-3)]Gal(b1-4)GlcNAc(b1-6)]GalNAc
In short: as §1

[11] = target: Fuc(a1-2)[GalNAc(a1-3)]Gal(b1-4)GlcNAc(b1-6)GalNAc
In short: as §1

[12] = target: Fuc(a1-2)[GalNAc(a1-3)]Gal(b1-4)[Fuc(a1-3)]GlcNAc
In short: as §1

[13] = target: Fuc(a1-2)[GalNAc(a1-3)]Gal(b1-4)[Fuc(a1-3)]GlcNAc(b1-3)GalNAc
In short: as §1

[14] = target: Fuc(a1-2)[GalNAc(a1-4)]Gal(b1-4)GlcNAc
In short: as §1

[15] = target: Fuc(a1-2)[GalNAc(b1-3)]Gal
In short: as §1

[16] = target: Fuc(a1-3)GlcNAc
In short: as §1

[17] = target: Fuc(a1-3)[Gal(b1-4)]Glc6S
In short: as §1

[18] = target: Fuc(a1-3)[Gal(b1-4)]GlcNAc
In short: as §1

[19] = target: Fuc(a1-3)[Gal(b1-4)]GlcNAc(b1-2)Man
In short: as §1

[20] = target: Fuc(a1-3)[Gal(b1-4)]GlcNAc(b1-2)Man(a1-3)[Fuc(a1-3)[Gal(b1-4)]GlcNAc(b1-2)Man(a1-6)]Man(b1-4)GlcNAc(b1-4)GlcNAc
In short: as §1

[21] = target: Fuc(a1-3)[Gal(b1-4)]GlcNAc(b1-2)Man(a1-3)[Fuc(a1-3)[Gal(b1-4)]GlcNAc(b1-2)Man(a1-6)]Man(b1-4)GlcNAc(b1-4)[Fuc(a1-6)]GlcNAc
In short: as §1

[22] = target: Fuc(a1-3)[Gal(b1-4)]GlcNAc(b1-3)Gal(b1-3)[Fuc(a1-4)]GlcNAc
In short: as §1

[23] = target: Fuc(a1-3)[Gal(b1-4)]GlcNAc(b1-3)Gal(b1-4)[Fuc(a1-3)]GlcNAc
In short: as §1

[24] = target: Fuc(a1-3)[Gal(b1-4)]GlcNAc(b1-3)Gal(b1-4)[Fuc(a1-3)]GlcNAc(b1-3)Gal(b1-4)[Fuc(a1-3)]GlcNAc
In short: as §1

[25] = target: Fuc(a1-3)[Gal(b1-4)]GlcNAc(b1-3)GalNAc
In short: as §1

[26] = target: Fuc(a1-3)[Gal(b1-4)]GlcNAc(b1-6)GalNAc
In short: as §1

[27] = target: Fuc(a1-3)[Gal(b1-4)]GlcNAc(b1-6)[Gal(b1-3)GlcNAc(b1-3)]Gal(b1-4)Glc
In short: as §1

[28] = target: Fuc(a1-3)[Gal(b1-4)]GlcNAc6S
In short: as §1

[29] = target: Fuc(a1-3)[Gal3S(b1-4)]Glc
In short: as §1

[30] = target: Fuc(a1-3)[Gal3S(b1-4)]GlcNAc
In short: as §1

[31] = target: Fuc(a1-3)[Gal3S(b1-4)]GlcNAc6S
In short: as §1

[32] = target: Fuc(a1-3)[GalNAc(b1-4)]GlcNAc
In short: as §1

[33] = target: Fuc(a1-3)[GalNAc(b1-4)]GlcNAc6S
In short: as §1

[34] = target: Fuc(a1-4)GlcNAc
In short: as §1

[35] = target: Fuc(b1-3)GlcNAc
In short: as §1

[36] = target: Gal(a1-2)Gal
In short: as §1

[37] = target: Gal(a1-3)Gal
In short: as §1

[38] = target: Gal(a1-3)Gal(b1-3)GlcNAc
In short: as §1

[39] = target: Gal(a1-3)Gal(b1-3)GlcNAc(b1-2)Man
In short: as §1

[40] = target: Gal(a1-3)Gal(b1-3)GlcNAc(b1-2)Man(a1-3)[Gal(a1-3)Gal(b1-3)GlcNAc(b1-2)Man(a1-6)]Man(b1-4)GlcNAc(b1-4)GlcNAc
In short: as §1

[41] = target: Gal(a1-3)Gal(b1-3)GlcNAc(b1-3)GalNAc
In short: as §1

[42] = target: Gal(a1-3)Gal(b1-3)GlcNAc(b1-6)GalNAc
In short: as §1

[43] = target: Gal(a1-3)Gal(b1-3)[Fuc(a1-4)]GlcNAc(b1-2)Man(a1-3)[Gal(a1-3)Gal(b1-3)[Fuc(a1-4)]GlcNAc(b1-2)Man(a1-6)]Man(b1-4)GlcNAc(b1-4)GlcNAc
In short: as §1

[44] = target: Gal(a1-3)Gal(b1-4)Glc
In short: as §1

[45] = target: Gal(a1-3)Gal(b1-4)GlcNAc
In short: as §1

B1: YghJ (Escherichia coli), E3PJ90 (protein)
chain: MNKKFKYKKSLLAAILSATLLAGCDGGGSGSSSDTPPVDSGTGSLPEVKPDPTPNPEPTPEPTPDPEPTPEPIPDPEPTPEPEPEPVPTKTGYLTLGGSQRVTGATCNGESSDGFTFKPGEDVTCVAGNTTIATFNTQSEAARSLRAVEKVSFSLEDAQELAGSDDKKSNAVSLVTSSNSCPANTEQVCLTFSSVIESKRFDSLYKQIDLAPEEFKKLVNEEVENNAATDKAPSTHTSPVVPVTTPGTKPDLNASFVSANAEQFYQYQPTEIILSEGRLVDSQGYGVAGVNYYTNSGRGVTGENGEFSFSWGEAISFGIDTFELGSVRGNKSTIALTELGDEVRGANIDQLIHRYSTTGQNNTRVVPDDVRKVFAEYPNVINEIINLSLSNGATLGEGEQVVNLPNEFIEQFNTGQAKEIDTAICAKTDGCNEARWFSLTTRNVNDGQIQGVINKLWGVDTNYKSVSKFHVFHDSTNFYGSTGNARGQAVVNISNAAFPILMARNDKNYWLAFGEKRAWDKNELAYITEAPSIVRPENVTRETASFNLPFISLGQVGDGKLMVIGNPHYNSILRCPNGYSWNGGVNKDGQCTLNSDPDDMKNFMENVLRYLSNDRWLPDAKSSMTVGTNLETVYFKKHGQVLGNSAPFAFHKDFTGITVKPMTSYGNLNPDEVPLLILNGFEYVTQWGSDPYSIPLRADTSKPKLTQQDVTDLIAYMNKGGSVLIMENVMSNLKEESASGFVRLLDAAGLSMALNKSVVNNDPQGYPDRVRQRRSTPIWVYERYPAVDGKPPYTIDDTTKEVIWKYQQENKPDDKPKLEVASWQEEVEGKQVTQFAFIDEADHKTPESLAAAKQRILDAFPGLEVCKDSDYHYEVNCLEYRPGTDVPVTGGMYVPQYTQLDLSADTAKAMLQAADLGTNIQRLYQHELYFRTNGRQGERLNSVDLERLYQNMSVWLWNETKYRYEEGKEDELGFKTFTEFLNCYTNNAYVGTQCSAELKKSLIDNKMIYGEESSKAGMMNPSYPLNYMEKPLTRLMLGRSWWDLNIKVDVEKYPGVVNTNGETVTQNINLYSAPTKWFAGNMQSTGLWAPAQQEVSIESKSTVPVTVTVALADDLTGREKHEVSLNRPPRVTKTYDLKANDKVTFKVPYGGLIYIKGDSKEVQSADFTFTGVVKAPFYKDGKWQHDLNSPAPLGELESASFVYTTPKKNLNASNYTGGLEQFANDLDTFASSMNDFYGRDSEDGKHRMFTYKNLPGHKHRFANDVQISIGDAHSGYPVMNSSFSPNSTTLPTTPLNDWLIWHEVGHNAAETPLTVPGATEVANNVLALYMQDRYLGKMNRVADDITVAPEYLEESNGQAWARGGAGDRLLMYAQLKEWAEKNFDIKKWYPDGTPLPEFYSEREGMKGWNLFQLMHRKARGDEVSNDKFGGKNYCAESNGNAADTLMLCASWVAQTDLSEFFKKWNPGANAYQLPGASEMSFEGGVSQSAYNTLASLDLPKPEQGPETINQVTEHKMSAE
[1]
  glycan array binding signal (z-score): -1.17
[2]
  glycan array binding signal (z-score): -2.03
[3]
  glycan array binding signal (z-score): 0.444
[4]
  glycan array binding signal (z-score): 0.302
[5]
  glycan array binding signal (z-score): 1.27
[6]
  glycan array binding signal (z-score): 0.686
[7]
  glycan array binding signal (z-score): -0.083
[8]
  glycan array binding signal (z-score): 0.828
[9]
  glycan array binding signal (z-score): -1.59
[10]
  glycan array binding signal (z-score): -0.647
[11]
  glycan array binding signal (z-score): 0.95
[12]
  glycan array binding signal (z-score): -0.532
[13]
  glycan array binding signal (z-score): 0.864
[14]
  glycan array binding signal (z-score): -0.373
[15]
  glycan array binding signal (z-score): 2.12
[16]
  glycan array binding signal (z-score): -0.259
[17]
  glycan array binding signal (z-score): -0.567
[18]
  glycan array binding signal (z-score): -0.2
[19]
  glycan array binding signal (z-score): -0.275
[20]
  glycan array binding signal (z-score): 1.37
[21]
  glycan array binding signal (z-score): 1.91
[22]
  glycan array binding signal (z-score): 2.74
[23]
  glycan array binding signal (z-score): -0.973
[24]
  glycan array binding signal (z-score): -1.17
[25]
  glycan array binding signal (z-score): 0.864
[26]
  glycan array binding signal (z-score): 0.618
[27]
  glycan array binding signal (z-score): -0.268
[28]
  glycan array binding signal (z-score): -1.01
[29]
  glycan array binding signal (z-score): 0.449
[30]
  glycan array binding signal (z-score): 0.725
[31]
  glycan array binding signal (z-score): 0.764
[32]
  glycan array binding signal (z-score): 0.729
[33]
  glycan array binding signal (z-score): 0.125
[34]
  glycan array binding signal (z-score): -1.15
[35]
  glycan array binding signal (z-score): -0.154
[36]
  glycan array binding signal (z-score): 0.209
[37]
  glycan array binding signal (z-score): -0.167
[38]
  glycan array binding signal (z-score): -1.57
[39]
  glycan array binding signal (z-score): -1.15
[40]
  glycan array binding signal (z-score): 1.47
[41]
  glycan array binding signal (z-score): 0.957
[42]
  glycan array binding signal (z-score): 0.282
[43]
  glycan array binding signal (z-score): -0.696
[44]
  glycan array binding signal (z-score): -0.571
[45]
  glycan array binding signal (z-score): -0.469
